Source: publication PMC5296651
Like-named read-outs stand apart in the source and are kept apart here. These are yes or no findings as the source states them, for the method shown. Binding seen in cells or lysates may run through a third protein. Some entries that bind do so weakly or less than the wild type.

By UniProt entry, the sequences of proteins in these tests, tags left out.
UniProt Q92769: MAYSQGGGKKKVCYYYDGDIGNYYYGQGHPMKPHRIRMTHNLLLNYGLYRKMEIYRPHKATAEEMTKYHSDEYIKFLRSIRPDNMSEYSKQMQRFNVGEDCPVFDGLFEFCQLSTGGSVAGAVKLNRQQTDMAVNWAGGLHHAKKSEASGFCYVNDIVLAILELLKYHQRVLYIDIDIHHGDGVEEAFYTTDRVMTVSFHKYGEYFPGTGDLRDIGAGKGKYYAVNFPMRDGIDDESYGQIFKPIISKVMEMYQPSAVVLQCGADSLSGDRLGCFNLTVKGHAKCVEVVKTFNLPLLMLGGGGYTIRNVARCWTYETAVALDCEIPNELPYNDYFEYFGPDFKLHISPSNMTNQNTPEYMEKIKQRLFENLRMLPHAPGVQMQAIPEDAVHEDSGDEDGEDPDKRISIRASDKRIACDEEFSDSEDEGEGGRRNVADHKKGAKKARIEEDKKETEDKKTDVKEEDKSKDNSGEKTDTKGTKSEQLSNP

T1: HOP homeobox (HOPX), endogenous in N2-Tert and NP69 cells (human (endogenous in N2-Tert and NP69)) (UniProt Q9BPY8)
T1 sequence: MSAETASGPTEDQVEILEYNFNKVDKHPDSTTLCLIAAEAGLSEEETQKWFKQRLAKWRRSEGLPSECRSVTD

T2: HOP homeobox (HOPX), stably overexpressed in CNE2 and SUNE1 cells (human) (UniProt Q9BPY8)
T2 sequence: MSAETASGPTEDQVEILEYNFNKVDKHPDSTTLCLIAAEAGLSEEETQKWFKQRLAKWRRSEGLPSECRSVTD


Experiments:
Test in all cases: co-IP; immunoprecipitation with anti-HOPX antibody (anti-IgG as negative control) from lysates of CH, SH, N2-Tert and NP69 cells, IP lysis buffer, overnight at 4 °C, Protein A/G Sepharose beads; western blotting
[1] = target: T1, HOP homeobox (HOPX), endogenous in N2-Tert and NP69 cells (human (endogenous in N2-Tert and NP69))
[2] = target: T2, HOP homeobox (HOPX), stably overexpressed in CNE2 and SUNE1 cells (human)
[3] = target: T1, HOP homeobox (HOPX), endogenous in N2-Tert and NP69 cells (human (endogenous in N2-Tert and NP69)); remark: listed apart in the source
[4] = target: T2, HOP homeobox (HOPX), stably overexpressed in CNE2 and SUNE1 cells (human); remark: listed apart in the source

Row | Molecule | binding [1] | binding [2] | binding [3] | binding [4]
1 | histone deacetylases 2 (HDAC2) (from UniProt Q92769 1-488) | binds | binds | – | –
2 | serum response factor (SRF) (protein, UniProt P11831 1-508) MLPTQAGAAAALGRGSALGGSLNRTPTGRPGGGGGTRGANGGRVPGNGAGLGPGRLEREAAAAAATTPAPTAGALYSGSEGDSESGEEEELGAERRGLKRSLSEMEIGMVVGGPEASAAATGGYGPVSGAVSGAKPGKKTRGRVKIKMEFIDNKLRRYTTFSKRKTGIMKKAYELSTLTGTQVLLLVASETGHVYTFATRKLQPMITSETGKALIQTCLNSPDSPPRSDPTTDQRMSATGFEETDLTYQVSESDSSGETKDTLKPAFTVTNLPGTTSTIQTAPSTSTTMQVSSGPSFPITNYLAPVSASVSPSAVSSANGTVLKSTGSGPVSSGGLMQLPTSFTLMPGGAVAQQVPVQAIQVHQAPQQASPSRDSSTDLTQTSSSGTVTLPATIMTSSVPTTVGGHMMYPSPHAVMYAPTSGLGDGSLTVLNAFSQAPSTMQVSHSQVQEPGGVPQVFLTASSGTVQIPVSAVQLHQMAVIGQQAGSSSNLTELQVVNLDTAHSTKSE | – | – | binds | binds
